Primary screen of a compound library

By UniProt entry, the sequences of proteins in these tests, tags left out.
UniProt E9BF75, entry or part of it: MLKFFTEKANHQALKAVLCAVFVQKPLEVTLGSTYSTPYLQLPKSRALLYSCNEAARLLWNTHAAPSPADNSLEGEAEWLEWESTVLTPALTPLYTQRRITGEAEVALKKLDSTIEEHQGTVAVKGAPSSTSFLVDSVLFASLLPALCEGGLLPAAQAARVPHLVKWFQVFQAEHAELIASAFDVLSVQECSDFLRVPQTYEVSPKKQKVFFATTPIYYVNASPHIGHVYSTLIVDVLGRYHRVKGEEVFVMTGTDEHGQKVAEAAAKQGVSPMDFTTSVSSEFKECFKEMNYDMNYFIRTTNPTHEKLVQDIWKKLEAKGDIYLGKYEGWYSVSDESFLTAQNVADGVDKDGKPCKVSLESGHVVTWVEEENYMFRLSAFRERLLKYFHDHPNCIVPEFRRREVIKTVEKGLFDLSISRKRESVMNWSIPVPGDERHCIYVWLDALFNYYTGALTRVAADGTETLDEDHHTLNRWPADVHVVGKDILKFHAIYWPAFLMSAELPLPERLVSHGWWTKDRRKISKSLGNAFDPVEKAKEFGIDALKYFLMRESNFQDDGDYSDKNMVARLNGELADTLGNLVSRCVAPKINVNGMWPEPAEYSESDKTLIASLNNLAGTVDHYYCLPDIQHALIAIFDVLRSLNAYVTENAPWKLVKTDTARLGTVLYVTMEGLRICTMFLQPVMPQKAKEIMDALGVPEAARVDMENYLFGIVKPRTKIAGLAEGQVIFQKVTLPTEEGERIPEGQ

The values are deposited in ChEMBL (CHEMBL3988442, “University of Dundee, Small-Polar-MMV Screening Library” (2021)).

Results are percentages, as filed. The record does not define 0% and 100%; most values in the screen are far below 50% and negative numbers occur (in some assays of this library far below -100). The compounds are a random part of those screened.

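Primary screen of methionyl-tRNA synthetase; the read-out is not stated. Target: Methionyl-tRNA synthetase (putative), Leishmania donovani (UniProt E9BF75). The test concentration is not given. The values are filed as inhibition. Of about 68,000 compounds tested this way, about 24 (0.035%) reached 50% or more in at least one test.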

SMILES | inhibition
CC(C)c1csc(C2CCCN(C(=O)c3ncccn3)C2)n1 (stereo not given) | 3.346
COc1ccccc1C(C)(C)NC(=O)NCCC(=O)NC1CCCC1 | 17.18
CS(=O)(=O)N1CCC(C(=O)N2CCN(Cc3cccc(Cl)c3)CC2)CC1 | 4.19
O=c1cc(CN2CCC(CCc3ccc(O)cc3)CC2)[nH]c(=O)[nH]1 | 7.246
O=C(CCn1cccn1)NCCOc1ncc(Cl)cc1Cl | 17.78
Cn1ncc2c(NC3CCC3)nc(-c3ccncc3)nc21 | 10.36
CCc1cc(CN2CCC(CCC(=O)Nc3ccccc3Cl)CC2)on1 | 12.9
Cc1nc(CN2C(=O)CCC23CCN(Cc2cccn2C)CC3)cs1 | 9.041
CCN1CC[C@@]2(C(=O)N3CCOCC3)CCN(C(=O)C(C)C)CC[C@@H]12 | 3.922
Cn1cc(N2CCN(c3ccc(C#N)cc3F)CC2=O)cn1 | 17.82
COCC(=O)Nc1ccc(-c2noc([C@@H]3CCCN3)n2)cn1 | 7.143
FC1(F)CCN(Cc2cccnc2)CC12CCN(c1ccccc1)C2 (stereo not given) | 39.79
COCCNc1nc(NCCc2ccccc2)nc2nccnc12 | 6.971
O=C1CCCN1CCc1noc(-c2ccc3[nH]cnc3c2)n1 | 4.337
Cn1cccc1C(=O)N1CCC2(CC1)c1nc[nH]c1CCN2S(C)(=O)=O | 12.06
O=S(=O)(c1cc2ccccc2o1)N1CCCC1 | 13.86
Cc1[nH]c2ccccc2c1CCNC(=O)N1CCC2(C1)OCCO2 | 14.17
CC(C)(C)c1ccc(=O)n(CN2CCCC(C(F)(F)F)C2)n1 (stereo not given) | 1.393
CC1=C(c2ccc(Cl)cc2)S(=O)(=O)N=C1N1CCc2ccccc21 | 5.634
COc1ccc(-c2nnc(CNCCn3cc(C)cn3)o2)cc1 | 2.732
Cn1cc(C(=O)N[C@@H]2CN(CC3CCOCC3)[C@@H]3CCCO[C@@H]32)cn1 | 9.63
Cn1nc(C2CN(S(C)(=O)=O)C2)c2nccnc21 | 7.345
CN1[C@H]2CC[C@@H]1CN(C(=O)c1sccc1S(N)(=O)=O)CC2 | 0.5013
CCCc1nc(C(C)(C)NC(=O)C2CC(=O)N(C3CC3)C2)no1 (stereo not given) | 18.44
CC(=O)NC(C(=O)N(C)Cc1nnc2n1CCC2)C(C)C (stereo not given) | 15.54
COc1ccc(OC)c([C@@H]2N[C@H](c3nccs3)Cc3ccsc32)c1 | 16.56
Cc1c[nH]c(CN(C)C(=O)C(C)(C)NC(=O)c2cccs2)n1 | 12.93
CCOC(=O)c1c(NC(=O)CN2CCN(C(C)=O)CC2)sc(C)c1C | 5.519
CSCC(=O)N1CCC2(CC1)c1ccccc1CC2O (stereo not given) | 5.512
c1cncc(-c2noc(CN3CCOC(Cn4cccn4)C3)n2)c1 (stereo not given) | 20.77
Cc1cc(N2CCCC2c2nnc3n2CCCCC3)nc(N)n1 (stereo not given) | 9.485
CCOC1CCN(C(=O)c2cnn(-c3ccccc3Cl)c2)CC1 | 15.03
O=C(c1cccnc1)N1CCc2ncnc(N3CCOCC3)c2CC1 | 11.54
CN(Cc1nc(-c2ccccc2)c[nH]1)C(=O)NCC(=O)NC(C)(C)C | 9.507
c1cnn(CC2CN(c3ncnc4ccsc34)CCO2)c1 (stereo not given) | 10.48
CC(C)c1nccn1C1CCCN(C(=O)c2ccsc2)C1 (stereo not given) | 12.03
c1coc(-c2noc(CN3CCc4cncnc4C3)n2)c1 | 16.32
c1cnc(NC[C@@H]2CCC[C@@H]3CN(Cc4cccnc4)C[C@@H]32)nc1 | -10.48
CN(Cc1cccc(-n2cccn2)c1)C(=O)c1cccc(N(C)C)c1 | 6.25
Cn1ccc(C(=O)NCCOc2ccc(C(C)(C)C)cc2)cc1=O | 8.527
COCCN1CC2(CCCN(C(=O)CCCc3cccs3)C2)CCC1=O (stereo not given) | 4.57
Cc1cc(C(=O)N[C@H]2CC[C@@]3(CCC(=O)N3C)CC2)no1 | -3.333
O=C(CN1CCCC1COc1ccccc1)NCc1ccccn1 (stereo not given) | 11.26
Cc1nn(C)c(N(C)C)c1CNCc1ccc(Cn2cccn2)cc1 | 7.829
CC(C)=CCN1C[C@H]2CC[C@@H]1CN(CCC(=O)NCc1ccco1)C2 | 16.15
Nc1nccnc1C1CN(C(=O)c2ccc3c(c2)OCO3)CCO1 (stereo not given) | 15.43
COCC1c2nnn(CC3CC3)c2CCN1C(=O)c1cc(C)[nH]c1C (stereo not given) | 15.46
Cc1cnc(N2C[C@@H]3CN(Cc4ccco4)CCC[C@]3(C(=O)O)C2)nc1 | 12.7
CCOc1ccccc1N1CCN(CC2(O)CCCNC2)CC1 (stereo not given) | 0.2786

Once more, the final 3:

SMILES,inhibition
COCC1c2nnn(CC3CC3)c2CCN1C(=O)c1cc(C)[nH]c1C (stereo not given),15.46
Cc1cnc(N2C[C@@H]3CN(Cc4ccco4)CCC[C@]3(C(=O)O)C2)nc1,12.7
CCOc1ccccc1N1CCN(CC2(O)CCCNC2)CC1 (stereo not given),0.2786